Measurements: publication PMC9670187
Results are given in words; binding and its absence hold for the method and conditions named. In cells and extracts the contact can be indirect. Some binding calls cover weakened binding; strength is not graded here. For part of these data: Where a sequence is shown, tags or fusion partners need not be part of it. Each block holds one molecule with its values, some of them ahead of it.

Amino acid sequences for entries named in this document (tags omitted).
UniProt Q9P286: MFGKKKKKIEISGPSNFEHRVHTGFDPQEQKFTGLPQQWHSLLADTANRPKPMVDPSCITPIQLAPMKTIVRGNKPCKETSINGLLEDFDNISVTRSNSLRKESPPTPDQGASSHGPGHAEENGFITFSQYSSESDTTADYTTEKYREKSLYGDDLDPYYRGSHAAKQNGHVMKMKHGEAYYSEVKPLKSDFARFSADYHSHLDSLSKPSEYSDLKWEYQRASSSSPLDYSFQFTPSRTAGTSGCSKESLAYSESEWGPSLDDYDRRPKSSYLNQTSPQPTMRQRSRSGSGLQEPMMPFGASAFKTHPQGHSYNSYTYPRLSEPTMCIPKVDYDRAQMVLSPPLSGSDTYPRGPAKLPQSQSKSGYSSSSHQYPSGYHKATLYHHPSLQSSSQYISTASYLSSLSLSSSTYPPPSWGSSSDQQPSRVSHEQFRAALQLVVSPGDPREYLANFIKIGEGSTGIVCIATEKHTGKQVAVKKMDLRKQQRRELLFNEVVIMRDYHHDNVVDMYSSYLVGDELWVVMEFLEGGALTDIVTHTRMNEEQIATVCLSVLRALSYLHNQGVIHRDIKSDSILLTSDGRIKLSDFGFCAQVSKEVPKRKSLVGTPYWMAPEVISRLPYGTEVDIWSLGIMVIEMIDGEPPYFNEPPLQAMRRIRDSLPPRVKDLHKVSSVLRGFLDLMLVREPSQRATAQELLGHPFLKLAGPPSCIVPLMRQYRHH

Columns and labels:
[1] = target: T1, SRSF11, endogenous (human (endogenous in LoVo)) (UniProt Q05519); test: co-IP; endogenous proteins, LoVo cell lysate (IP lysis buffer); IP with anti-SRSF11 overnight at 4°C, Protein A+G agarose; blot for PAK5
T1 sequence: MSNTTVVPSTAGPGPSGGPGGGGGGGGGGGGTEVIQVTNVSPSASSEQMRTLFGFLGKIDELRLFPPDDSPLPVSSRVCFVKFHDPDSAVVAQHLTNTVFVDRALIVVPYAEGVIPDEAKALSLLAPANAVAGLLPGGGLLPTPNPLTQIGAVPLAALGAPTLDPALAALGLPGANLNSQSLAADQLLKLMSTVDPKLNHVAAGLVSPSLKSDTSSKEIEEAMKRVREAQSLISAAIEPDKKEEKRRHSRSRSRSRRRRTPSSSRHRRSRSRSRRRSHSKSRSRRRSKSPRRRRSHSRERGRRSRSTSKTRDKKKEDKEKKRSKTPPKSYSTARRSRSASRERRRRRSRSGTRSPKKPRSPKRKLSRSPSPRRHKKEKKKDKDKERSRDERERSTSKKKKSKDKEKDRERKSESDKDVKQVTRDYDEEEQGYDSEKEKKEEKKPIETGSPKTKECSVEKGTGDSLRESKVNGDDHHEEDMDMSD

[2] = target: T2, Flag-SRSF11 (wild type) (human) (UniProt Q05519); test: co-IP; LoVo cells co-transfected with MYC-PAK5 and Flag-SRSF11; IP with anti-Flag and blot for MYC, or IP with anti-MYC and blot for Flag; IP lysis buffer, overnight at 4°C, Protein A+G agarose
T2 sequence: T1 sequence

MYC-PAK5 = MYC-PAK5 (UniProt Q9P286); test: as above

binding [1]: binds
Molecule: p21-activated kinase 5 (PAK5), endogenous (from UniProt Q9P286 1-719) (enzyme)

binding [2]: binds
Molecule: MYC-PAK5 (from UniProt Q9P286 1-719) (enzyme)

binding (MYC-PAK5): binds
B1: Flag-SRSF11 (wild type) (protein, UniProt Q05519-1 1-484)
chain: T1 sequence
